Reference: patent US9200265B2, “Anti-cocaine compositions and treatment” (priority 2006, dated 2015)
For part of these data: The name of at least one read-out is uncertain. For part of these data: At least one structure is not confirmed: it was looked up by name or label, or the drawing left a doubt.

Assays:
CocE [1] = molecular target: T1, CocE (Rhodococcus sp., UniProt Q9L9D7); test: Stabilization against 37° C.-induced formation of high molecular weight CocE aggregates (gel); type: physicochemical, Rhodococcus sp. MB 1; settings: 0.1 mg/ml enzyme, mM range
T1 construct: generating a full-length CocE gene encoding the T172R mutation; His6 (C); made in house; host or cells: E. coli (pET-22b(+))
Protocol: Plasmids containing the mutations were transformed into E. coli BL21 cells and IPTG-induced enzyme was purified on Ni-Agarose. Expressed proteins were then tested for enzymatic activity and for thermostability at 37° C. Enzyme activity was measured using the spectrophotometric assay as described in Example 1. Thermostability was also tested via the spectrophotometric assay by pre-incubation of both wild-type and mutants at 37° C. for various times. Additionally, the nature of the thermo-instability of both the wild-type and T172R mutant was analyzed by polyacrylamide gel electrophoresis under denaturing and non-denaturing conditions. […] Finally, the exact melting temperature of both the wild-type and T172R mutant were determined by circular dichroism using a JASCO-810 spectropolarimeter driven by a JASCO V500/FP-750 analysis program for Windows. The CD spectra were measured in millidegrees and normalized against PBS buffer.
Cocaine esterase (CocE) cleaves cocaine to produce Benzoic acid and Ecgonine methyl ester. […] As discussed below, it was determined that some substrates, products, and inhibitors stabilized thermal denaturation of wild type CocE, as well as prevented thermally-induced aggregation in gel electrophoresis.
Cocaine is the natural substrate of Cocaine esterase (CocE). Cocaine cleavage was monitored by a drop in absorbance at 240 nm. […]

CocE [2] = molecular target: T1, CocE; test: Stabilization of 37° C.-induced CocE activity loss; type: biochemical, Rhodococcus sp. MB 1; settings: uM quantities
Text: Cocaine esterase (CocE) cleaves cocaine to produce Benzoic acid and Ecgonine methyl ester. Briefly, alternative substrates and inhibitors of cocaine, as well as compounds able to thermostabilize the enzyme, were investigated generally by substituting amide and thiol analogues at the reactive ester bond, or removing the bond (for inhibitors), substituting benzoyl analogues in place of the benzoic acid leaving group, and/or removing or altering the methyl-ester group on the ecgonine portion of the molecule. As discussed below, it was determined that some substrates, products, and inhibitors stabilized thermal denaturation of wild type CocE, as well as prevented thermally-induced aggregation in gel electrophoresis.
Cocaine is the natural substrate of Cocaine esterase (CocE). Cocaine cleavage was monitored by a drop in absorbance at 240 nm. Cocaine (mM range) prevented 37° C.-induced formation of high molecular weight CocE aggregates (0.1 mg/ml enzyme concentrations) (see, e.g., FIG. 33). Cocaine (uM quantities) stabilized 37° C.-induced activity loss (see, e.g., FIG. 34), although the mechanism of this stabilization is complicated due to substrate inhibition at higher concentrations.

[3] = Time-dependent inactivation of CocE in vitro (incubation at temperature, then activity); settings: purified enzyme, 37° C., preliminary in vitro data

Row | Molecule | 37° C.-induced formation of high molecular weight CocE aggregates (CocE [1]) | 37° C.-induced activity loss (CocE [2]) | t1/2 of temperature-dependent inactivation [3]
1 | COC(=O)[C@H]1[C@@H](OC(=O)c2ccccc2)C[C@@H]2CC[C@H]1N2C [cocaine] | prevented | stabilized | –
2 | CocE: wild-type cocaine esterase of Rhodococcus sp. MB 1, SEQ ID NO: 1, Accession No. AF173165 (protein, Rhodococcus sp. MB1) MVDGNYSVASNVMVPMRDGVRLAVDLYRPDADGPVPVLLVRNPYDKFDVFAWSTQSTNWLEFVRDGYAVVIQDTRGLFASEGEFVPHVDDEADAEDTLSWILEQAWCDGNVGMFGVSYLGVTQWQAAVSGVGGLKAIAPSMASADLYRAPWYGPGGALSVEALLGWSALIGTGLITSRSDARPEDAADFVQLAAILNDVAGAASVTPLAEQPLLGRLIPWVIDQVVDHPDNDESWQSISLFERLGGLATPALITAGWYDGFVGESLRTFVAVKDNADARLVVGPWSHSNLTGRNADRKFGIAATYPIQEATTMHKAFFDRHLRGETDALAGVPKVRLFVMGIDEWRDETDWPLPDTAYTPFYLGGSGAANTSTGGGTLSTSISGTESADTYLYDPADPVPSLGGTLLFHNGDNGPADQRPIHDRDDVLCYSTEVLTDPVEVTGTVSARLFVSSSAVDTDFTAKLVDVFPDGRAIALCDGIVRMRYRETLVNPTLIEAGEIYEVAIDMLATSNVFLPGHRIMVQVSSSNFPKYDRNSNTGGVIAREQLEEMCTAVNRIHRGPEHPSHIVLPIIKR | – | – | approximately 15 min
